Experimental data: patent US6235514A, “Nucleic acid molecules encoding isopentenyl monophosphate kinase, and methods of use” (Washington State University Research Foundation, priority 1999, dated 2001)
At least one structure is not confirmed: it was looked up by name or label, or the drawing left a doubt.

Assays:
[1] = biological target: T1, recombinant peppermint kinase (isopentenyl monophosphate kinase, SEQ ID NO:2) (Mentha piperita, UniProt P56848); assay: Kinase assay, recombinant peppermint IP kinase, crude extracts of transformed E. coli; format: biochemical, peppermint (Mentha x piperita); conditions: crude extract; for Kinase activity with substrate, recombinant peppermint kinase: standard assay conditions; for Phosphokinase activity with substrate, in words, recombinant peppermint kinase: compared to E. coli background; for Rate (kinase activity with substrate), Peppermint: induced, high phosphatase activity, rates are minimums, averages of two to five experiments
T1 sequence (P56848 98-405): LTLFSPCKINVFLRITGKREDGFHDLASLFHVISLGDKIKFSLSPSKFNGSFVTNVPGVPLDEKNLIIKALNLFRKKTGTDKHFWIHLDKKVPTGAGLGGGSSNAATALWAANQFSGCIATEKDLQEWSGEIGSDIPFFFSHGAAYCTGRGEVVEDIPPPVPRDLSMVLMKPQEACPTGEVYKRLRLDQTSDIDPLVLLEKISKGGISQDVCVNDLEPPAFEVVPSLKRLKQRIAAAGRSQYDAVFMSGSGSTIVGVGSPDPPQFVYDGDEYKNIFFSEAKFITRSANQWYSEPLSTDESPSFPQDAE

[2] = tested on: isolated peppermint oil gland secretory cells; conditions: McCaskill & Croteau, Planta 197:49-56 [1995]; cited from earlier work

Row | Compound | Kinase activity with substrate, recombinant peppermint kinase [1] | Phosphokinase activity with substrate, in words, recombinant peppermint kinase [1] | Rate (kinase activity with substrate), Peppermint [1] [pmol/s · g protein] | Rate of incorporation into terpenoids observed previously [2]
1 | CC(=O)[C@@H](O)[C@H](O)COP(=O)(O)O [DXP, deoxyxylulose-5-phosphate] | less than 0.2 pmol (s g protein)^-1 | – | – | –
2 | C=C(C)CCOP(=O)(O)O [IP, isopentenyl monophosphate] | 1.43 pmol (s g protein)^-1 | detectably elevated levels of activity | 1.43 | –
3 | CC(=O)[C@@H](O)[C@H](O)CO [DX, deoxyxylulose] | less than 0.2 pmol (s g protein)^-1 | – | – | –
4 | CC(=O)C(=O)O [pyruvate] | – | – | – | 67 pmol (h 10^5 cell clusters)^-1
5 | C=C(C)CCO [ISO, isopentenol] | – | detectably elevated levels of activity | 0.10 | –
